This is one part of the list. Measured potencies and affinities stand elsewhere.
What follows are compounds tested on Acinetobacter baumannii. Details: Concentration 32 ug.mL-1; ASSAY_TEST Inhibition of Bacterial Growth; detection method Absorption (OD600); MEDIA CAMHB; plate type 384well; NBS; CORNING #3640; time 18 hr.

Compound | Inhibition
CC(=O)CC1O[C@H]([C@@H](O)CO)[C@@H](O)[C@H](O)[C@@H]1O (stereo not given in full) | 2.39%
N.O=C(O)C1(O)C[C@@H](O)[C@H](O)[C@@H]([C@@H](O)CO)O1 (stereo not given in full) | -0.11%
OC[C@@H](O)[C@H]1OC(O)C[C@@H](O)[C@@H]1O (stereo not given in full) | -0.79%
CCN(CC)CC.O=P(O)(O)OC1C[C@@H](O)[C@H](O)[C@@H]([C@H](O)CO)O1 (stereo not given in full) | -2.35%
CCN(CC)CC.C[C@@H](CC1O[C@H]([C@@H](O)CO)[C@@H](O)[C@H](O)[C@@H]1O)OP(=O)(O)OC[C@H]1O[C@@H](n2cnc3c(N)ncnc32)[C@H](O)[C@@H]1O (stereo not given in full) | 4.84%
CCN(CC)CC.C[C@@H](CC1O[C@H]([C@H](O)CO)[C@@H](O)[C@H](O)[C@@H]1O)OP(=O)(O)OC[C@H]1O[C@@H](n2cnc3c(N)ncnc32)[C@H](O)[C@@H]1O (stereo not given in full) | 10.62%
CCN(CC)CC.C[C@H](CC1O[C@H]([C@H](O)CO)[C@@H](O)[C@H](O)[C@@H]1O)OP(=O)(O)OC[C@H]1O[C@@H](n2cnc3c(N)ncnc32)[C@H](O)[C@@H]1O (stereo not given in full) | 0.75%
CCN(CC)CC.C[C@@H](CC1O[C@H]([C@@H](O)CO)[C@@H](O)[C@H](O)[C@@H]1O)OP(=O)(O)O (stereo not given in full) | -2.2%
CCN(CC)CC.C[C@H](CC1O[C@H]([C@@H](O)CO)[C@@H](O)[C@H](O)[C@@H]1O)OP(=O)(O)O (stereo not given in full) | -1.67%
CCN(CC)CC.C[C@H](CC1O[C@H]([C@@H](O)CO)[C@@H](O)[C@H](O)[C@@H]1O)OP(=O)(O)OC[C@H]1O[C@@H](n2cnc3c(N)ncnc32)[C@H](O)[C@@H]1O (stereo not given in full) | -0.37%
